Hit rate of the full screen: of about 360,000 compounds, about 1,700 (0.47%) were called active. Inconclusive results, whose numbers are uncertain, are shown with a selection of clear calls. The call rests on the fitted dose curve; in most records, active means well fitted inhibition curve with a large enough effect; inconclusive means small, poorly fitted or top-dose-only effect; inactive means no such curve, though single readings can be large or run the other way. Potencies of inconclusive entries are doubtful fits and often do not repeat.
Target: Bifunctional 3'-5' exonuclease/ATP-dependent helicase WRN (Homo sapiens) (UniProt Q14191)
Assay: qHTS for Inhibitors of WRN Helicase; further: nearly all actives have a fitted effect of over 55% in size
Conditions: WRN helicase unwinding, fluorescent forked duplex, kinetic; series mostly up to 114 µM
In short: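 WRN at 20 nM final was preincubated with compound for 15 min at room temperature; reaction started with 100 nM forked duplex oligonucleotide carrying fluorophore and quencher plus 2 mM ATP (final). Unwinding followed kinetically by red fluorescence (ex 525/em 598 nm).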
Potency means the concentration at half of the fitted maximal effect.

Amino acid sequences for entries named in this document (tags omitted).
UniProt Q14191, whole entry, looked up: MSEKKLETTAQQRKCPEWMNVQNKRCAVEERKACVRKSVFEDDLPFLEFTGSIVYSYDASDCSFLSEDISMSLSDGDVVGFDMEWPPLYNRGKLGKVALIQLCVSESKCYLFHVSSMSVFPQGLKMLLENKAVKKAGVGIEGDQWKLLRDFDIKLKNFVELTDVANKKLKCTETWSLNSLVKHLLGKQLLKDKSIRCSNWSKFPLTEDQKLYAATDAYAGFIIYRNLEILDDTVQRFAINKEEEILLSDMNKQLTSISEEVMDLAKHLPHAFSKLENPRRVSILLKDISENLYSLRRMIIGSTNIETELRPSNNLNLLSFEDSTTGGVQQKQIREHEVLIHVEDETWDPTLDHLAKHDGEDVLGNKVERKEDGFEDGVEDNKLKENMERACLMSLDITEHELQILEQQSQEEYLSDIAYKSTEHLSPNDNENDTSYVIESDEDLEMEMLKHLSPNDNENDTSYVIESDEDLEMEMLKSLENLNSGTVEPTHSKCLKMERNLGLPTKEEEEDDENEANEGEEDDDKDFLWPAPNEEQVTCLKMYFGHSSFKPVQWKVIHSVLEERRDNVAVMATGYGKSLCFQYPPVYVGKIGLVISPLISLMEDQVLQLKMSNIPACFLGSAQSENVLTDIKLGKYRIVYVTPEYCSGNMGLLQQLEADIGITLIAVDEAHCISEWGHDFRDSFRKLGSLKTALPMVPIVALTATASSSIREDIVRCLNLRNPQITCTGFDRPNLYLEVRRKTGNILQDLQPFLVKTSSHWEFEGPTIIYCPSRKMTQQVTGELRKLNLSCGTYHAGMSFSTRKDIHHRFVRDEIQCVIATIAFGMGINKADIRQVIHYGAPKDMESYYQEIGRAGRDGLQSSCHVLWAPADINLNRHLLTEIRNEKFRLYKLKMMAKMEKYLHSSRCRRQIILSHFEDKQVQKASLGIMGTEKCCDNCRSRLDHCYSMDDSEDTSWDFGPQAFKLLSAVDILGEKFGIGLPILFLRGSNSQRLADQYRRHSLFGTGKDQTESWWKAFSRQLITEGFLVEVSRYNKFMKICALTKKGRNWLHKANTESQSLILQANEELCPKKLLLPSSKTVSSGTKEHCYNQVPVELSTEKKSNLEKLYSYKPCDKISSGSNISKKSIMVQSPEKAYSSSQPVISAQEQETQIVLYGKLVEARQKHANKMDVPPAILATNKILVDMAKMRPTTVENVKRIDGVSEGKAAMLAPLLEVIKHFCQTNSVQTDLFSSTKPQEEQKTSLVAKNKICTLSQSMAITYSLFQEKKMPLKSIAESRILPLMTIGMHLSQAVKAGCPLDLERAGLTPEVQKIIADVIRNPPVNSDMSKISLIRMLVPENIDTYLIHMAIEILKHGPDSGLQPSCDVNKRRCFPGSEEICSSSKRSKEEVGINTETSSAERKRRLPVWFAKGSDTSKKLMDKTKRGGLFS

SMILES	Potency
N#Cc1ccccc1S(=O)(=O)N1CCN(C(=O)C2COc3ccccc3O2)CC1 (configuration not stated)	inconclusive: 14.1 µM [inhibitor, full curve, poor fit]
O=c1c2c(nc3cc(-c4ccc(F)cc4)[nH]n13)CCCC2	inconclusive: 79.4 µM [inhibitor, partial curve]
Cn1c(=O)[nH]c(Nc2ccc(F)cc2)c([N+](=O)[O-])c1=O	inactive
COc1c(Br)cc(/C=N/n2c(-c3ccccc3)n[nH]c2=S)c(O)c1Br	inconclusive: 56.2 µM [inhibitor, partial curve]
CC1=NOC(=O)/C1=C\c1ccc(-c2cccc(Cl)c2)o1	active: 13.4 µM
O=C(N/N=C/c1ccoc1)c1cc(O)cc(O)c1	active: 20 µM
COc1cc(/C=C2\SC(=S)N(NC(=O)c3cccc(O)c3)C2=O)ccc1O	active: 31.6 µM
COc1ccc(CS(=O)/C(Cl)=C(/Cl)C(=O)Nc2ccc(OC)nc2)cc1 (configuration not stated)	active: 17.8 µM
Cc1ccc(C)c(NC(=O)Cc2ccc(S(=O)(=O)N3CCCCC3)s2)c1	inactive
Cc1cccc(-c2nn(-c3ccccc3)cc2C(=O)N2CCN(C3CCS(=O)(=O)C3)CC2)c1 (configuration not stated)	inconclusive: 25.1 µM [inhibitor, single point]
O=C(NC(=S)Nc1ccc(NC(=O)c2cccs2)cc1)c1cc2ccccc2o1	inactive
CCOc1cccc(C(=O)Nc2cccc(C(C)=O)c2)c1	inconclusive: 10 µM [inhibitor, partial curve]
CSc1nnc(-c2ccco2)c(-c2ccco2)n1	inconclusive: 18.9 µM [inhibitor, partial curve]
CCN(CC(=O)Nc1ccc(NC(C)=O)cc1)C(=O)C1(c2ccccc2)CC1	inactive
COc1ccc(C2(CNC(=O)c3cccs3)CCOCC2)cc1	inactive
O=C(CSc1nc(O)cc(=O)[nH]1)N1CCCc2ccccc21	inconclusive: 50.1 µM [inhibitor, partial curve, poor fit]
Oc1c(Br)cc(/C=N/Nc2ccc(Cl)nn2)cc1Br	active: 44.7 µM
Cc1occc1C(=O)NCc1cccc(CNC(=O)c2ccoc2C)c1	active: 39.8 µM
O=C1NC(=S)SC1=Cc1cc(Br)ccc1O	inconclusive: 11.2 µM [inhibitor, full curve]
O=C(O)c1ccc(NC(=S)NC(=O)c2ccc(-c3ccc(Br)cc3)o2)cc1	inactive
Cc1ccc(NC(=O)COC(=O)c2nn(-c3ccc(Cl)cc3)cc2O)cc1	inactive
O=C1Nc2ccccc2Oc2cc([N+](=O)[O-])cc(Oc3ccccc3)c21	inconclusive: 15.8 µM [inhibitor, full curve, poor fit]

Two of these compounds, set out differently.
CCOc1cccc(C(=O)Nc2cccc(C(C)=O)c2)c1
  Potency: inconclusive: 10 µM [inhibitor, partial curve]
CSc1nnc(-c2ccco2)c(-c2ccco2)n1
  Potency: inconclusive: 18.9 µM [inhibitor, partial curve]
